Reference: article PMC5501531
Where two headings read alike, the source gives them in different places. Results are given in words; binding and its absence hold for the method and conditions named. Binding seen in cells or lysates may run through a third protein. Some entries that bind do so weakly or less than the wild type. Sequences can lack the tags named with a protein. Values belong to the molecule of their own block, whether it stands above or below them.

Sequences of proteins named here, by UniProt entry; tags and fusion partners are left off.
UniProt Q39026: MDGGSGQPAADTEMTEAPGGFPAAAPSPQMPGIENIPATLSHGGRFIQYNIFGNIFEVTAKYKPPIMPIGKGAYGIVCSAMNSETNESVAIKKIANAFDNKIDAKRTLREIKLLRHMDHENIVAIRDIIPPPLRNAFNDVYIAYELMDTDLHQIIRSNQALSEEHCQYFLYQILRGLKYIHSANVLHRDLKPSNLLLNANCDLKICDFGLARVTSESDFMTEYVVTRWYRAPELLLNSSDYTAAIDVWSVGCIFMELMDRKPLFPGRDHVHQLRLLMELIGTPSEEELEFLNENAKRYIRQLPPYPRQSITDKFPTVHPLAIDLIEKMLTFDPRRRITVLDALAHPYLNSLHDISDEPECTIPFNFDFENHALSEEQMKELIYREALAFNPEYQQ

Tests used:
[1] = target: T1, YFPc-HD2B (histone deacetylase HD2B fused to the C-terminal fragment of yellow fluorescent protein) (Arabidopsis thaliana) (UniProt Q56WH4); assay: split reporter; BiFC with split YFP in epidermal cells of Agrobacterium-infiltrated Nicotiana benthamiana leaves; YFP fluorescence read after three days by confocal microscopy; empty vectors as controls
T1 sequence: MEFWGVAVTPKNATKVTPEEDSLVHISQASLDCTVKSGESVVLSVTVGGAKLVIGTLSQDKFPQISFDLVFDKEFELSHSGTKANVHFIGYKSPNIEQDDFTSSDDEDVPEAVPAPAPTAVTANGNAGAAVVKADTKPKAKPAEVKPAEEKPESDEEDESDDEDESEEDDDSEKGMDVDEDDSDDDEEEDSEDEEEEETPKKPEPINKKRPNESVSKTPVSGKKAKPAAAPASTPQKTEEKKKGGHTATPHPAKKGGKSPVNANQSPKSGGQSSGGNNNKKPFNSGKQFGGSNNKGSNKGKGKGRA

[2] = target: T1, YFPc-HD2B (histone deacetylase HD2B fused to the C-terminal fragment of yellow fluorescent protein) (Arabidopsis thaliana); assay: as above; remark: listed apart in the source
[3] = target: T2, HD2B-c-Myc (Arabidopsis thaliana) (UniProt Q56WH4); assay: co-IP; protein extracts of protoplasts transiently expressing HD2B-c-Myc and MPK3-HA; immunoprecipitated with anti-c-Myc antibody on protein A-Sepharose, blotted with anti-c-Myc or anti-HA; 50 mM Tris-HCl pH 7.8, 150 mM NaCl, 1 mM EDTA, 0.1% NP-40
T2 sequence: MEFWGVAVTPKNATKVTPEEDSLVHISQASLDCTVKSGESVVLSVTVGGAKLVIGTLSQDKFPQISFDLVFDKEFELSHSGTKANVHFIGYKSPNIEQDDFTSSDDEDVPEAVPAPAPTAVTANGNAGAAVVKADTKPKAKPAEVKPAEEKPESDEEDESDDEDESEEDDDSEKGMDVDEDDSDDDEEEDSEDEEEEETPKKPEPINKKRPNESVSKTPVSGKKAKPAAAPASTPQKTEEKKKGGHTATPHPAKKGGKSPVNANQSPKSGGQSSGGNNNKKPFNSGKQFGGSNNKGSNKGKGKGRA

[4] = target: T3, GFP-HD2B (p35S::GFP-HD2B) (Arabidopsis thaliana) (UniProt Q56WH4); assay: co-IP; leaf lysate of transgenic plants expressing both GFP-HD2B and MPK3-c-Myc; immunoprecipitated with anti-GFP (and anti-c-Myc) antibody, Protein A/G resin, blotted with anti-c-Myc; 50 mM Tris-HCl pH 8.0, 0.5% NP-40, 200 mM NaCl
T3 sequence: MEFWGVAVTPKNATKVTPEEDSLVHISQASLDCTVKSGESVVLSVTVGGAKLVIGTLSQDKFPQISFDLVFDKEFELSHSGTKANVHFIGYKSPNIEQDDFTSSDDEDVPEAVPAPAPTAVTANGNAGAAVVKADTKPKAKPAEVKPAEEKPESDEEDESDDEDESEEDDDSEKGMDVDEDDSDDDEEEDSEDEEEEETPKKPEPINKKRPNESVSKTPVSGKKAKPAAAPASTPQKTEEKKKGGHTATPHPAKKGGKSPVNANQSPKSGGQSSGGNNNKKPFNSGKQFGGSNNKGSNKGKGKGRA

binding [1]: binds
Molecule: MPK6 (BiFC fusion) (from UniProt Q39026 1-395) (enzyme)

binding [2]: binds
B1: YFPn-MPK3 (MAP kinase MPK3 fused to the N-terminal fragment of yellow fluorescent protein) (enzyme, UniProt Q39023 1-370)
chain: MNTGGGQYTDFPAVETHGGQFISYDIFGSLFEITSKYRPPIIPIGRGAYGIVCSVLDTETNELVAMKKIANAFDNHMDAKRTLREIKLLRHLDHENIIAIRDVVPPPLRRQFSDVYISTELMDTDLHQIIRSNQSLSEEHCQYFLYQLLRGLKYIHSANIIHRDLKPSNLLLNANCDLKICDFGLARPTSENDFMTEYVVTRWYRAPELLLNSSDYTAAIDVWSVGCIFMELMNRKPLFPGKDHVHQMRLLTELLGTPTESDLGFTHNEDAKRYIRQLPNFPRQPLAKLFSHVNPMAIDLVDRMLTFDPNRRITVEQALNHQYLAKLHDPNDEPICQKPFSFEFEQQPLDEEQIKEMIYQEAIALNPTYG

binding [3]: binds
B2: MPK3-HA (enzyme, UniProt Q39023 1-370)
chain: MNTGGGQYTDFPAVETHGGQFISYDIFGSLFEITSKYRPPIIPIGRGAYGIVCSVLDTETNELVAMKKIANAFDNHMDAKRTLREIKLLRHLDHENIIAIRDVVPPPLRRQFSDVYISTELMDTDLHQIIRSNQSLSEEHCQYFLYQLLRGLKYIHSANIIHRDLKPSNLLLNANCDLKICDFGLARPTSENDFMTEYVVTRWYRAPELLLNSSDYTAAIDVWSVGCIFMELMNRKPLFPGKDHVHQMRLLTELLGTPTESDLGFTHNEDAKRYIRQLPNFPRQPLAKLFSHVNPMAIDLVDRMLTFDPNRRITVEQALNHQYLAKLHDPNDEPICQKPFSFEFEQQPLDEEQIKEMIYQEAIALNPTYG

binding [4]: binds
B3: MPK3-c-Myc (p35S::MPK3-c-Myc) (enzyme, UniProt Q39023 1-370)
chain: MNTGGGQYTDFPAVETHGGQFISYDIFGSLFEITSKYRPPIIPIGRGAYGIVCSVLDTETNELVAMKKIANAFDNHMDAKRTLREIKLLRHLDHENIIAIRDVVPPPLRRQFSDVYISTELMDTDLHQIIRSNQSLSEEHCQYFLYQLLRGLKYIHSANIIHRDLKPSNLLLNANCDLKICDFGLARPTSENDFMTEYVVTRWYRAPELLLNSSDYTAAIDVWSVGCIFMELMNRKPLFPGKDHVHQMRLLTELLGTPTESDLGFTHNEDAKRYIRQLPNFPRQPLAKLFSHVNPMAIDLVDRMLTFDPNRRITVEQALNHQYLAKLHDPNDEPICQKPFSFEFEQQPLDEEQIKEMIYQEAIALNPTYG
